From paper PMC12548414
The campaign covered roughly 1,600 compounds. About 20 (1%) showed an effect of 50% or more. Some of the results follow.

Test system: T1, E. coli pLC1021 (luc-trpAt trans-translation reporter)
T1 construct: pLC1021 luc-trpAt reporter strain
Set-up: species or system Escherichia coli pLC1021; luc-trpAt non-stop luciferase reporter; luminescence rises when trans-translation is inhibited; normalized to KKL-35 and DMSO
Settings: reporter signal, KKL-35 = 100%; rise means trans-translation inhibition; 2 h, 20 µM
Experimental: The luciferase screen was performed as previously described ([16]). […] 48 µL of cells was transferred to white 96-well plates, and 2 µL DMSO or 20 µM compound, or 20 µM KKL-35 was added. Plates were sealed with adhesive film, vortexed gently to mix, and incubated at room temperature for 2 h. 50 µL Bright-Glo reagent (Promega, Madison, WI) was added to each well, and the plates were sealed with adhesive film, vortexed vigorously, and incubated for an additional 10 min at room temperature. Luminescence was measured at 560 nm using a SpectraMax i3 microplate reader and readings for each plate were normalized to the average of three KKL-35-treated wells (positive control) and three DMSO-treated wells (negative control) within the plate to correct for plate-to-plate and day-to-day variations. Results from at least two biological repeats were averaged, and GraphPad Prism was used to plot the data. We screened a library of 1,601 anti-tubercular small molecules for their ability to inhibit trans-translation using a luciferase reporter in Escherichia coli. In this luc-trpAt reporter, the firefly luciferase gene has a trpA transcriptional terminator before the stop codon, such that luciferase is translated from a non-stop mRNA ([16]). When trans-translation is active, the luciferase will be tagged and degraded, but when trans-translation is inhibited, active luciferase will accumulate, resulting in a luminescent signal when luciferin is added. Luciferase activity was measured after growth in the presence of compounds from the library at 20 µM, using the known trans-translation inhibitor KKL-35 as a positive control (Fig. 1A) ([16], [17]). Compounds with activity one standard deviation above the median were scored as positive (Fig. S1 and Table S1).

Row | Compound | % activation [%]
1 | COc1ccccc1C(=O)NNC(=S)NC(=O)c1ccc(-c2ccccc2)cc1 [KKL-0561] | 11
2 | CCc1ccc(Nc2nnc(SCc3cc(C)on3)s2)cc1 [KKL-1791] | 0
3 | O=Cc1ccc(C(=O)N2CCCC(C(=O)c3ccc(Oc4ccccc4)cc3)C2)cc1 (stereo not shown) [KKL-1187] | 2
4 | O=C(Nc1nc(-c2ccccc2F)cs1)c1cnc(N2CCCCC2)nc1 [KKL-0331] | 2
5 | COc1cc(OC)c(-c2nn3c(C4CCCCC4)nnc3s2)cc1OC [KKL-1017] | 1
6 | CCOC(=O)COc1ccc2c(=O)c(-c3ccccc3)coc2c1 [KKL-1516] | 4
7 | CCOC(=O)Cn1cc(C#N)c2cccc(CC)c21 [KKL-1580] | 3
8 | O=C(Nc1ccc(C(F)(F)F)cc1)Nc1cccc(F)c1 [KKL-1574] | 0
9 | Cc1ccc(C2=Nc3ccccc3SC(c3cccc([N+](=O)[O-])c3)C2)cc1 (stereo not shown) [KKL-1203] | 6
10 | CCC(C)Oc1ccc(C(=O)NC(=S)Nc2ccc(NC(=O)c3ccco3)cc2)cc1 (stereo not shown) [KKL-1413] | 4
11 | CCc1ccccc1N1C(=O)c2cccc3c([N+](=O)[O-])ccc(c23)C1=O [KKL-1363] | 0
12 | Fc1cccc(Oc2cc(C3CCCNC3)nc(-c3ccncc3)n2)c1 (stereo not shown) [KKL-1670] | 3
13 | COc1ccc(-c2ncc(CN3CCCC(C(=O)c4cccc(OC(C)C)c4)C3)cn2)cc1 (stereo not shown) [KKL-0633] | 0
14 | NC(=O)c1ccc(NC(=O)COC(=O)c2c3c(nc4ccccc24)/C(=C\c2cccs2)CCC3)cc1 [KKL-0818] | 0
15 | Cc1ccc(C(=O)NC(=S)Nc2ccc(S(=O)(=O)NC(C)C)cc2)cc1Br [KKL-0593] | 0
16 | Cc1cc(Cl)ccc1NC(=O)CCc1ccc(S(=O)(=O)NCC(C)C)cc1 [KKL-1451] | 2
17 | Cc1ccc(CN(CCCn2ccnc2)Cc2cccc(Cl)c2Cl)o1 [KKL-1195] | 17
18 | CCOC(=O)c1ccc(NC(=O)C2C(=O)N(C)C3(C)CC2c2ccccc2O3)cc1 (stereo not shown) [KKL-1246] | 0
19 | CCCOC(=O)c1ccc(NC(=S)NC(=O)c2ccc(Cl)cc2)cc1 [KKL-0761] | 3
20 | CC(NCC(O)COc1ccccc1C(C)(C)C)c1ccccc1 (stereo not shown) [KKL-0780] | 17
21 | Cc1ccc2[nH]c3c(c2c1)CCCC3NCCCOc1ccc(F)cc1 (stereo not shown) [KKL-0771] | 84
22 | Cc1cc(OCC(=O)NC2C3CC4CC(C3)CC2C4)cc(C)c1Br (stereo not shown) [KKL-1295] | 0

Of the compounds above, 3 contain an aryl methoxy group:
Row | Compound | % activation [%]
1 | COc1ccccc1C(=O)NNC(=S)NC(=O)c1ccc(-c2ccccc2)cc1 [KKL-0561] | 11
5 | COc1cc(OC)c(-c2nn3c(C4CCCCC4)nnc3s2)cc1OC [KKL-1017] | 1
13 | COc1ccc(-c2ncc(CN3CCCC(C(=O)c4cccc(OC(C)C)c4)C3)cn2)cc1 (stereo not shown) [KKL-0633] | 0

Some of the entries so far, with each value named:
O=C(Nc1nc(-c2ccccc2F)cs1)c1cnc(N2CCCCC2)nc1 [KKL-0331]
  % activation [%]: 2
COc1cc(OC)c(-c2nn3c(C4CCCCC4)nnc3s2)cc1OC [KKL-1017]
  % activation [%]: 1

More compounds follow.

Row | Compound | % activation [%]
23 | O=C(Oc1cccc2cccnc12)c1cc2ccccc2oc1=O [KKL-0571] | 8
24 | S=C(NCCCN1CCN(c2ccc(Cl)cc2)CC1)Nc1cccc(Cl)c1 [KKL-0444] | 10
25 | COc1ccc2c(c1)C(O)CC1(CCN(CC(O)c3ccc4c(c3)CCCC4)CC1)O2 (stereo not shown) [KKL-0556] | 0
26 | Cc1ccc(C)c(N2C(=O)c3cccc4c([N+](=O)[O-])ccc(c34)C2=O)c1 [KKL-1360] | 0
27 | O=c1oc(-c2ccccc2)cc(Cl)c1Cl [KKL-0741] | 0
28 | Cn1nc([N+](=O)[O-])nc1Sc1ncnn1-c1ccccc1 [KKL-1548] | 0
29 | CC(=O)c1ccc(NC(=O)NC(C)C23CC4CC(CC(C4)C2)C3)cc1 (stereo not shown) [KKL-1533] | 0
30 | CSc1ccc(-c2nc(CN3CCN(c4ccc(Cl)cn4)CC3)c(C)o2)cc1 [KKL-0629] | 0
31 | CN(C)c1ccc(C(O)(c2ccc(N(C)C)cc2)c2ccc(N(C)C)cc2)cc1 [KKL-1495] | 0
32 | CC1(C)N=C(N)N=C(N)N1OCCc1ccc2ccccc2c1 [KKL-1717] | 20
33 | COc1ccc2[nH]c(CNCCc3nc4cc(Cl)ccc4[nH]3)cc2c1 [KKL-1215] | 0
34 | Cc1ccc(CNC(=O)c2cnn3c2NC(c2ccc(C)cc2)CC3C(F)F)cc1 (stereo not shown) [KKL-1766] | 0
35 | Cn1ccnc1CNCCS(=O)(=O)c1cccc(Nc2ccc(-c3cccc(F)c3)cn2)c1 [KKL-1860] | 2
36 | COC(=O)[C@@H]1Cc2c([nH]c3ccccc23)[C@H]2C[C@@H](NC(C)C)C[C@@H](c3cccc(Cl)c3)N21 [KKL-1594] | 1
37 | COC(=O)c1sccc1NC(=O)c1c(F)c(F)c(F)c(F)c1F [KKL-1479] | 0
38 | CCCn1c(NC(=O)c2cccc(C)c2C)nc2ccccc21 [KKL-0829] | 3
39 | CSc1ncc(CN2CCCC(C(=O)c3ccc(-c4ccccc4)c(F)c3)C2)cn1 (stereo not shown) [KKL-0344] | 0
40 | Cc1cc2c(cc1Cl)C(O)CC1(CCN(CC(O)c3ccc(Cl)cc3)CC1)O2 (stereo not shown) [KKL-0936] | 2
41 | CC1C(c2ccccc2)N(C)C(c2ccccc2)CC1(O)c1ccccc1 (stereo not shown) [KKL-1046] | 0
42 | NC(=O)C1Cc2ccc(C(=O)c3cccs3)cc2S1 (stereo not shown) [KKL-1835] | 0
43 | Cc1cccc(N=C(S)NCCN2CCN(c3ccc(F)c(Cl)c3)CC2)c1C [KKL-1290] | 0
44 | Cc1cccc(Nc2cc(Cl)c3nonc3c2[N+](=O)[O-])c1C [KKL-0853] | 0

Row | Compound | % activation [%]
45 | CCCc1cc(NCCCn2ccnc2)n2nc(C)c(-c3ccccc3)c2n1 [KKL-0902] | 17
46 | CCOC(=O)C1=C(c2ccc(C)cc2)C(=O)c2ccccc2C1=O [KKL-1404] | 6
47 | O=Cc1ccc2oc3nc4n(c(=O)c3c(=O)c2c1)CCCS4 [KKL-0997] | 8
48 | CCOC(=O)Cn1cc(/C=C(/C#N)c2nc3cc(OC)ccc3[nH]2)c2ccccc21 [KKL-0602] | 2
49 | OC(CN1CCC2(CC1)CC(O)c1cc(F)ccc1O2)c1ccc2c(c1)CCCC2 (stereo not shown) [KKL-0925] | 0
50 | CC1CCN(C(=O)COC(=O)c2cc3ccccc3cc2O)CC1 [KKL-0819] | 0
51 | CC(C)(C)c1ccc(Cn2cnc([N+](=O)[O-])n2)cc1 [KKL-1556] | 0
52 | CC(=O)Oc1cccc2ccc(/C=C/c3ccc(Cl)cc3)nc12 [KKL-1284] | 0
53 | CCc1ccc(O)c(NC(=S)NC(=O)c2cccc3ccccc23)c1 [KKL-1439] | 1
54 | O=C(Nc1nc(-c2ccccn2)cs1)C1CCCC1 [KKL-0791] | 0
55 | O=C(CSc1ccc(Br)cc1)Nc1cccc(Cl)c1 [KKL-0413] | 8
56 | O=C(c1ccccn1)N1CCCCC1c1nc(Nc2ccccc2)cc(-c2ccncc2)n1 (stereo not shown) [KKL-1263] | 10
57 | O=C(Nc1nnc(SCc2ccc(F)cc2)s1)c1ccccn1 [KKL-0812] | 14
58 | Cc1ccc2nc(C)c(C(=O)NCc3ccco3)n2c1 [KKL-1756] | 0
59 | NC1CCc2nc(-c3ccncc3)nc(Nc3ccc(C(F)(F)F)cc3)c2C1 (stereo not shown) [KKL-0539] | 620
60 | S=C(NCc1ccc(Cl)cc1)N1CCN(C/C=C/c2ccccc2)CC1 [KKL-1331] | 0
61 | O=C(c1cc(COc2ccc(F)cc2Cl)on1)N1CCCCO1 [KKL-0558] | 0
62 | CC(NC(=O)c1cc2cc(F)ccc2[nH]1)c1cc(O)n2nc(C3CCOCC3)cc2n1 (stereo not shown) [KKL-0691] | 4
63 | CC(=O)N(C)c1ccc(OCC(O)Cn2c3ccc(Cl)cc3c3cc(Cl)ccc32)cc1 (stereo not shown) [KKL-0751] | 7
64 | O=C(/C=C\c1ccccc1)Oc1cccc2cccnc12 [KKL-1634] | 0
65 | CC(C)(C)C(=O)N1CCc2nc(N3CCCC3)nc(Oc3ccc(F)cc3)c2C1 [KKL-1348] | 0
66 | CCC(C)c1ccc(OCCn2ccnc2)cc1 (stereo not shown) [KKL-1307] | 13

Row | Compound | % activation [%]
67 | Clc1ccc(C2=CC(c3ccc(Cl)cc3)n3nnnc3N2)cc1 (stereo not shown) [KKL-0438] | 0
68 | Cc1cc(CN2CCC3(CC2)OCCc2sccc23)oc1C [KKL-1725] | 0
69 | CN(C)c1ccc(-c2nnc(SCC(=O)OCc3ccccc3)o2)cc1 [KKL-1259] | 11
70 | Cc1cc(OCC(=O)Nc2ccccc2)c2cc(Br)ccc2n1 [KKL-1816] | 9
71 | Cc1nc2ccccn2c1C(=O)NCc1ccc(Cl)cc1 [KKL-1748] | 13
72 | CCC1CCCCN1C(=S)NC(=O)c1ccc(F)cc1 (stereo not shown) [KKL-0915] | 0
73 | COc1ccc(C(=O)Nc2cc(OC)c(NC(=O)c3ccco3)cc2OC)cc1 [KKL-1627] | 0
74 | Cc1cccc(C2c3[nH]c4ccccc4c3CCN2C(=O)c2csc3nc(C)cn23)c1 (stereo not shown) [KKL-0642] | 3
75 | CC(C)OC1c2ncc(-c3ccccc3)cc2Sc2nc(-c3cccnc3)nn21 (stereo not shown) [KKL-0343] | 0
76 | CC(C)Cc1ccc(CN2CCCC(NC(=O)c3ccc4c(c3)no[n+]4[O-])C2)cc1 (stereo not shown) [KKL-0639] | 5
77 | O=C(CCCSc1ccccc1)Nc1nc(-c2ccccn2)cs1 [KKL-0800] | 1
78 | CC(C)C(=O)Nc1ccc(C(=O)Oc2ccccc2)c(O)c1 [KKL-0776] | 0
79 | Cc1cccc(-n2nc([N+](=O)[O-])c(NCCC3=CCCCC3)[n+]2[O-])c1 [KKL-0576] | 6
80 | COc1cc(/C=C/c2ccc3cccc(O)c3n2)cc([N+](=O)[O-])c1O [KKL-1276] | 0
81 | COc1ccc(-c2cc(C(=O)NN=C/C=C/c3ccccc3OC)[nH]n2)cc1 [KKL-1473] | 0
82 | Cc1ccc2oc(-c3cc(NC(=O)Cc4ccccc4)ccc3Cl)nc2c1 [KKL-0856] | 0
83 | COc1ccc2c(c1)C=C(CN(CCCn1ccnc1)Cc1ccc(C)o1)CO2 [KKL-0338] | 0
84 | CCOC(=O)C1=C(c2ccccc2)N=C(N)NC1c1ccc(OCc2ccc(Cl)cc2)c(OC)c1 (stereo not shown) [KKL-0385] | 6
85 | COc1ccc2c(c1)NC1(COC3(CCN(C(=O)C4CCCC4)CC3)C1)c1cccn1-2 (stereo not shown) [KKL-1225] | 8
